# PubChem BioAssay AID1159508 | Drosophila RNAi Screening Center, 2015
# Purpose: 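How silencing genes for RNA-binding proteins changes cellular ATP without other treatment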
# Cell system: Drosophila S2R+ cells
# Reagents: long dsRNA against Drosophila genes
# Time to read-out: 5 days
# Measured: 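Total ATP per well measured by luciferase luminescence after 5 days, expressed as z-scores for each replicate and as their average across up to three replicates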
# Reading the numbers: mean ATP z-score and ATP z-score: higher = more total ATP luminescence
# Active means: In these data the active calls have mean ATP z-score at about -2 or lower, or at about 2 or higher
# Calls: active = strong ATP change (up or down); inactive = no strong ATP change
# The deposit covers 812 reagents; this is a part drawn at random. In the full data, 18 (2.2%) were called active. 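Calls include both increased and decreased ATP; roughly one in four reagents has no third replicate value.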 Not given: the amount of reagent.
gene,DRSC id,mean ATP z-score,"ATP z-score, replicate 1","ATP z-score, replicate 2","ATP z-score, replicate 3",Call
msl-3,DRSC11371,1.24,0.718,0.927,1.83,inactive
msl-3,DRSC35871,0.29,0.19,0.353,,inactive
Fmr1,DRSC26781,-0.269,-0.589,-0.448,0.281,inactive
Fmr1,DRSC40461,0.00232,-0.0361,-0.000334,0.043,inactive
Smn,DRSC10223,0.282,-0.218,0.0459,0.964,inactive
Smn,DRSC42688,-0.903,-1.14,-1.05,-0.342,inactive
CG8545,DRSC07210,0.115,0.00962,0.0643,0.25,inactive
CG8545,DRSC35557,1.91,0.847,1.7,2.83,inactive
mEFG1,DRSC02758,1.34,0.73,1.46,1.56,inactive
mEFG1,DRSC42722,-1.38,-1.44,-1.39,-1.06,inactive
Rrp46,DRSC15537,0.364,-0.169,0.578,0.613,inactive
Rrp46,DRSC42696,-0.799,-1.23,-0.534,-0.477,inactive
Neos,DRSC11235,0.0524,-0.12,-0.064,0.331,inactive
Neos,DRSC35885,-0.511,-0.784,-0.172,,inactive
ash1,DRSC37387,-0.559,-0.748,-0.712,-0.109,inactive
ash1,DRSC38115,0.239,0.203,0.245,,inactive
bru2,DRSC32801,0.524,0.468,0.478,0.524,inactive
bru2,DRSC32802,-0.428,-0.456,-0.411,-0.335,inactive
scaf6,DRSC10075,-0.189,-0.384,-0.246,0.099,inactive
scaf6,DRSC34298,0.267,-0.0444,0.545,,inactive
Srp9,DRSC10973,-0.106,-0.177,-0.149,0.0296,inactive
Srp9,DRSC40955,-0.267,-0.347,-0.277,-0.124,inactive
CG33158,DRSC09708,-0.361,-1.18,-0.0301,0.192,inactive
CG33158,DRSC10438,-0.347,-0.458,-0.301,-0.217,inactive
sqd,DRSC29779,-0.977,-1.04,-0.787,,inactive
sqd,DRSC32626,-0.225,-0.461,-0.198,0.0259,inactive

Next part, starting with the last 5 of the part before.
gene,DRSC id,mean ATP z-score,"ATP z-score, replicate 1","ATP z-score, replicate 2","ATP z-score, replicate 3",Call
Srp9,DRSC40955,-0.267,-0.347,-0.277,-0.124,inactive
CG33158,DRSC09708,-0.361,-1.18,-0.0301,0.192,inactive
CG33158,DRSC10438,-0.347,-0.458,-0.301,-0.217,inactive
sqd,DRSC29779,-0.977,-1.04,-0.787,,inactive
sqd,DRSC32626,-0.225,-0.461,-0.198,0.0259,inactive
CG3335,DRSC10358,0.336,0.097,0.532,,inactive
CG3335,DRSC29982,-0.0691,-0.32,-0.129,0.255,inactive
Nmd3,DRSC22834,0.773,0.566,0.663,0.943,inactive
Nmd3,DRSC42647,-0.645,-0.773,-0.716,-0.322,inactive
Capr,DRSC10346,0.349,-0.0111,0.315,0.677,inactive
Capr,DRSC26777,-0.773,-1.03,-0.76,-0.384,inactive
CG10384,DRSC28924,-0.352,-0.542,-0.289,-0.157,inactive
CG10384,DRSC33566,0.622,-0.537,0.477,1.81,inactive
CG34354,DRSC15645,1.04,0.295,0.858,1.77,inactive
CG34354,DRSC23054,-0.0781,-0.782,0.01,0.553,inactive
eIF3g2,DRSC14275,0.18,0.0949,0.154,0.256,inactive
eIF3g2,DRSC28960,0.374,-0.258,0.565,0.742,inactive
Dbp73D,DRSC11142,-0.138,-0.353,0.0943,,inactive
Dbp73D,DRSC35683,0.85,-0.0621,0.916,1.53,inactive
fne,DRSC25129,-0.168,-0.244,-0.212,-0.016,inactive
fne,DRSC33310,0.559,-0.363,-0.316,2.25,inactive
Cnot4,DRSC02830,-0.545,-0.742,-0.557,-0.231,inactive
Cnot4,DRSC02831,0.00372,-0.0317,0.0387,,inactive
Isha,DRSC04456,-0.478,-0.688,-0.486,-0.169,inactive
Isha,DRSC42678,-0.579,-0.685,-0.649,-0.291,inactive
mEFTu1,DRSC06959,-0.28,-0.668,-0.0877,-0.0308,inactive
mEFTu1,DRSC29468,-0.595,-0.742,-0.372,,inactive
AGO2,DRSC31769,-1.86,-1.86,-1.83,-1.54,inactive
AGO2,DRSC40785,-2.07,-2.04,-1.83,,active
CG3045,DRSC04331,0.0461,-0.477,-0.0674,0.674,inactive
CG3045,DRSC42680,-0.303,-0.519,-0.297,-0.0349,inactive
mle,DRSC04921,-0.892,-1.15,-0.521,,inactive
mle,DRSC37605,-0.336,-0.378,-0.251,,inactive
how,DRSC25008,0.27,-0.707,0.36,1.11,inactive
how,DRSC40698,0.0816,-0.129,-0.121,0.479,inactive
CG9004,DRSC08617,0.123,-0.174,0.09,0.43,inactive
CG9004,DRSC42684,0.238,0.124,0.242,0.302,inactive
CG1316,DRSC08304,-1.06,-1.43,-0.928,-0.617,inactive
CG1316,DRSC42685,0.784,0.649,0.735,0.817,inactive
